Results deposited as PubChem BioAssay AID1117269 (University of Michigan, 2014).
The deposit covers 714 reagents; below is a random part of them. 49 of all reagents (6.9%) were called active. 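Active means a hit in at least one line; per-line hit columns show which; some siRNA pools appear more than once.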 Not given: the amount of reagent.

Screen: 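Kinases whose silencing alters a TGF-beta responsive luciferase reporter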 (primary screen)
System: human A549 lung cancer and 1833 breast cancer (MDA-MB-231-derived) cell lines carrying a stable BTR luciferase reporter
Reagents: siRNA pool against human genes
Timing: 72 h after transfection, then 1 h TGF-beta before the read
Challenge: TGF-beta 10 ng/mL added one hour before luciferin and read-out
Measured: 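Live-cell BTR luciferase signal at 72 h after transfection and 1 h of TGF-beta at 10 ng/mL, fold versus scrambled siRNA, triplicate mean for each line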
Reading the numbers: fold over scrambled siRNA, A549 and fold over scrambled siRNA, 1833: higher = more reporter light, weaker TGF-beta receptor signalling
Rule for the call: 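Hit in either line counts as active; per-line hits lie above an upper limit from quartiles of averaged log fold values, in plate and screen-wide analyses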
Meaning of the calls: active = hit in at least one line; inactive = hit in neither line

no.	gene knocked down	fold over scrambled siRNA, A549	fold over scrambled siRNA, 1833	hit in A549	hit in 1833	Call
1	PRKDC	3.67	3.76	not a hit in A549	not a hit in 1833	inactive
2	MAPK12	1.19	3.19	not a hit in A549	not a hit in 1833	inactive
3	CDK11A	1.02	2.4	not a hit in A549	not a hit in 1833	inactive
4	EIF2AK1	3.92	6.38	not a hit in A549	not a hit in 1833	inactive
5	RPS6KA1	2.84	3.04	not a hit in A549	not a hit in 1833	inactive
6	SRPK1	2.01	11	not a hit in A549	hit in 1833	
7	NUCKS1	2.08	7.54	not a hit in A549	not a hit in 1833	inactive
8	PMVK	2.48	3.01	not a hit in A549	not a hit in 1833	inactive
9	HIPK4	3.35	1.81	not a hit in A549	not a hit in 1833	inactive
10	TRIB3	2.37	5.08	not a hit in A549	not a hit in 1833	inactive
11	CERK	1.89	7.47	not a hit in A549	not a hit in 1833	inactive
12	EPHB2	0.95	4.1	not a hit in A549	not a hit in 1833	inactive
13	WEE1	0.756	2.15	not a hit in A549	not a hit in 1833	inactive
14	DGUOK	1.78	5.38	not a hit in A549	not a hit in 1833	inactive
15	PAPSS1	3.14	6.52	not a hit in A549	not a hit in 1833	inactive
16	PKM	3.9	7.11	not a hit in A549	not a hit in 1833	inactive
17	ROS1	4.67	2.6	not a hit in A549	not a hit in 1833	inactive
18	TGFBR2	0.793	1.59	not a hit in A549	not a hit in 1833	inactive
19	PRKCH	4.04	3.81	not a hit in A549	not a hit in 1833	inactive
20	MAPKAPK3	2.03	1.84	not a hit in A549	not a hit in 1833	inactive
21	PIK3CA	1.46	1.6	not a hit in A549	not a hit in 1833	inactive
22	TLK2	3.42	2.26	not a hit in A549	not a hit in 1833	inactive
23	AURKA	0.433	3.33	not a hit in A549	not a hit in 1833	inactive
24	CIT	0.875	11.5	not a hit in A549	hit in 1833	
25	TRPM7	3.76	3.24	not a hit in A549	not a hit in 1833	inactive
26	PKDCC	0.86	2.8	not a hit in A549	not a hit in 1833	inactive
27	PFKP	4.58	3.6	not a hit in A549	not a hit in 1833	inactive
28	ROR2	2.22	4.8	not a hit in A549	not a hit in 1833	inactive
29	STK25	2.16	1.4	not a hit in A549	not a hit in 1833	inactive
30	RIOK2	2.48	5.2	not a hit in A549	not a hit in 1833	inactive
31	PRKACG	2.05	5.48	not a hit in A549	not a hit in 1833	inactive
32	PIP4K2B	2.43	3.51	not a hit in A549	not a hit in 1833	inactive
33	TAB1	0.81	2.36	not a hit in A549	not a hit in 1833	inactive
34	CPNE3	1.82	1.93	not a hit in A549	not a hit in 1833	inactive
35	NME2	2.24	2.74	not a hit in A549	not a hit in 1833	inactive
36	FYN	2.17	8.04	not a hit in A549	not a hit in 1833	inactive
37	BCR	0.474	1.23	not a hit in A549	not a hit in 1833	inactive
38	PRKACA	2.16	2.88	not a hit in A549	not a hit in 1833	inactive
39	MAP3K4	1.12	1.48	not a hit in A549	not a hit in 1833	inactive
40	MVK	2.12	2.47	not a hit in A549	not a hit in 1833	inactive
41	FASTK	3.75	22.6	not a hit in A549	hit in 1833	
42	MARK4	1.96	2.85	not a hit in A549	not a hit in 1833	inactive
43	SGK1	5.11	4.56	not a hit in A549	not a hit in 1833	inactive
44	INSR	2.7	7	not a hit in A549	not a hit in 1833	inactive
45	VRK3	3.15	1.48	not a hit in A549	not a hit in 1833	inactive
46	PRKAA2	4.43	7.19	not a hit in A549	not a hit in 1833	inactive
47	CHUK	3.36	3	not a hit in A549	not a hit in 1833	inactive
48	CDK20	2.14	6.14	not a hit in A549	not a hit in 1833	inactive
49	NEK9	1.94	0.81	not a hit in A549	not a hit in 1833	inactive
50	AK2	2.48	8.48	not a hit in A549	not a hit in 1833	inactive
51	COASY	2.29	3.72	not a hit in A549	not a hit in 1833	inactive
52	LTK	1.39	2.75	not a hit in A549	not a hit in 1833	inactive
53	CDKL4	3.05	2.11	not a hit in A549	not a hit in 1833	inactive
54	AGK	2.71	4.93	not a hit in A549	not a hit in 1833	inactive
55	PXK	1.69	2.22	not a hit in A549	not a hit in 1833	inactive
56	MAST1	1.3	4.11	not a hit in A549	not a hit in 1833	inactive
57	GRK7	0.979	1.44	not a hit in A549	not a hit in 1833	inactive

Look-ups from the entries so far:
Result for CERK in “Call”: inactive
Under “Call”, TLK2 has inactive
CIT, hit in 1833 → hit in 1833
TAB1, fold over scrambled siRNA, A549 = 0.81
DGUOK, fold over scrambled siRNA, 1833: 5.38
Under “Call”, PMVK reads inactive
